Experimental data from publication doi:10.1101/437814.
Results are given in words; binding and its absence hold for the method and conditions named. Binding seen in cells or lysates may run through a third protein. Some entries that bind do so weakly or less than the wild type.

Molecular target: T1, Signal Transducer and Activator of Transcription 1 (human (endogenous in HEK293)), P42224
T1 chain: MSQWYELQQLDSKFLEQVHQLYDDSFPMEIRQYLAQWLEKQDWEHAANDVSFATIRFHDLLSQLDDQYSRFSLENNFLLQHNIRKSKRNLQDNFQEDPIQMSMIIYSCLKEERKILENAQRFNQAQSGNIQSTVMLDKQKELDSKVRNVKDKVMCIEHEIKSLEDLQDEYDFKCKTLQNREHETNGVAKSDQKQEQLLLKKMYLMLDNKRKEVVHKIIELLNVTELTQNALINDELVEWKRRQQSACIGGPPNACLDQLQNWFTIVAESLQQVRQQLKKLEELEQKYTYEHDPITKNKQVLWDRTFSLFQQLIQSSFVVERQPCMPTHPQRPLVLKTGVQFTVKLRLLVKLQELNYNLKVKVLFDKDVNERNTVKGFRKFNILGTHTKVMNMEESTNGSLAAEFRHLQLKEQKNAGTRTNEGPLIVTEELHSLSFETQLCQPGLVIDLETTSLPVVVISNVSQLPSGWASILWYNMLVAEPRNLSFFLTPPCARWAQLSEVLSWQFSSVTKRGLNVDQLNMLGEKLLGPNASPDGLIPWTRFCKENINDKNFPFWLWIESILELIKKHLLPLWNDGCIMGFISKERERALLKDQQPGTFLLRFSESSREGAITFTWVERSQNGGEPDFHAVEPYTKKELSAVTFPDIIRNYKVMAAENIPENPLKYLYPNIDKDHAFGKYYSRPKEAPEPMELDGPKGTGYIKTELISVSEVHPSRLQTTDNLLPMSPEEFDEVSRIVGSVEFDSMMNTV
Assay: cross-linking
Conditions: remark: other sources report otherwise

B1: Signal Transducer and Activator of Transcription 1, P42224 1-750 (protein)
chain: MSQWYELQQLDSKFLEQVHQLYDDSFPMEIRQYLAQWLEKQDWEHAANDVSFATIRFHDLLSQLDDQYSRFSLENNFLLQHNIRKSKRNLQDNFQEDPIQMSMIIYSCLKEERKILENAQRFNQAQSGNIQSTVMLDKQKELDSKVRNVKDKVMCIEHEIKSLEDLQDEYDFKCKTLQNREHETNGVAKSDQKQEQLLLKKMYLMLDNKRKEVVHKIIELLNVTELTQNALINDELVEWKRRQQSACIGGPPNACLDQLQNWFTIVAESLQQVRQQLKKLEELEQKYTYEHDPITKNKQVLWDRTFSLFQQLIQSSFVVERQPCMPTHPQRPLVLKTGVQFTVKLRLLVKLQELNYNLKVKVLFDKDVNERNTVKGFRKFNILGTHTKVMNMEESTNGSLAAEFRHLQLKEQKNAGTRTNEGPLIVTEELHSLSFETQLCQPGLVIDLETTSLPVVVISNVSQLPSGWASILWYNMLVAEPRNLSFFLTPPCARWAQLSEVLSWQFSSVTKRGLNVDQLNMLGEKLLGPNASPDGLIPWTRFCKENINDKNFPFWLWIESILELIKKHLLPLWNDGCIMGFISKERERALLKDQQPGTFLLRFSESSREGAITFTWVERSQNGGEPDFHAVEPYTKKELSAVTFPDIIRNYKVMAAENIPENPLKYLYPNIDKDHAFGKYYSRPKEAPEPMELDGPKGTGYIKTELISVSEVHPSRLQTTDNLLPMSPEEFDEVSRIVGSVEFDSMMNTV
For B1, which binding is on record?
Its binding is “binds”.
